In all, about 290,000 compounds went through this assay and about 110 (0.038%) were called active. Inconclusive means that the source gave no clear call. Such entries were picked first, then a sample of the others. Calls follow the shape of the dose curve; as a rule, active = well fitted inhibition curve with a large enough effect in the polarisation, with a control signal flat (not every such curve was filed as active); inconclusive = small, poorly fitted or top-dose-only effect, or effect the other way, or a change in a side signal; inactive = no such curve, though single readings can be large or run the other way; the % refers to the polarisation. A potency beside an inconclusive call is a rough fit, not a confirmed value. “Side channel” marks fits to a control or component signal instead of the main read-out.
biological target: Histone-lysine N-methyltransferase 2A (Homo sapiens) (UniProt Q03164); test: qHTS Fluorescence Polarization Assay for Inhibitors of MLL CXXC domain - DNA interaction; conditions: MLL-CXXC / FITC-HOXA9 DNA fluorescence polarization; series mostly up to 115 µM
How it was run: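 Fluorescence polarization: 7 uM MLL-CXXC (stock) preincubated 5 min with compounds, then 50 nM fluorescein-HOX-A9 DNA (stock) added; 30 min ambient. Buffer 50 mM Tris-HCl pH 7.5, 50 mM NaCl, 1 mM DTT, 0.05% BSA.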
Potency is read from the fitted curve at half-maximal effect.

By UniProt entry, the sequences of proteins in these tests, tags left out.
UniProt Q03164, whole entry, looked up: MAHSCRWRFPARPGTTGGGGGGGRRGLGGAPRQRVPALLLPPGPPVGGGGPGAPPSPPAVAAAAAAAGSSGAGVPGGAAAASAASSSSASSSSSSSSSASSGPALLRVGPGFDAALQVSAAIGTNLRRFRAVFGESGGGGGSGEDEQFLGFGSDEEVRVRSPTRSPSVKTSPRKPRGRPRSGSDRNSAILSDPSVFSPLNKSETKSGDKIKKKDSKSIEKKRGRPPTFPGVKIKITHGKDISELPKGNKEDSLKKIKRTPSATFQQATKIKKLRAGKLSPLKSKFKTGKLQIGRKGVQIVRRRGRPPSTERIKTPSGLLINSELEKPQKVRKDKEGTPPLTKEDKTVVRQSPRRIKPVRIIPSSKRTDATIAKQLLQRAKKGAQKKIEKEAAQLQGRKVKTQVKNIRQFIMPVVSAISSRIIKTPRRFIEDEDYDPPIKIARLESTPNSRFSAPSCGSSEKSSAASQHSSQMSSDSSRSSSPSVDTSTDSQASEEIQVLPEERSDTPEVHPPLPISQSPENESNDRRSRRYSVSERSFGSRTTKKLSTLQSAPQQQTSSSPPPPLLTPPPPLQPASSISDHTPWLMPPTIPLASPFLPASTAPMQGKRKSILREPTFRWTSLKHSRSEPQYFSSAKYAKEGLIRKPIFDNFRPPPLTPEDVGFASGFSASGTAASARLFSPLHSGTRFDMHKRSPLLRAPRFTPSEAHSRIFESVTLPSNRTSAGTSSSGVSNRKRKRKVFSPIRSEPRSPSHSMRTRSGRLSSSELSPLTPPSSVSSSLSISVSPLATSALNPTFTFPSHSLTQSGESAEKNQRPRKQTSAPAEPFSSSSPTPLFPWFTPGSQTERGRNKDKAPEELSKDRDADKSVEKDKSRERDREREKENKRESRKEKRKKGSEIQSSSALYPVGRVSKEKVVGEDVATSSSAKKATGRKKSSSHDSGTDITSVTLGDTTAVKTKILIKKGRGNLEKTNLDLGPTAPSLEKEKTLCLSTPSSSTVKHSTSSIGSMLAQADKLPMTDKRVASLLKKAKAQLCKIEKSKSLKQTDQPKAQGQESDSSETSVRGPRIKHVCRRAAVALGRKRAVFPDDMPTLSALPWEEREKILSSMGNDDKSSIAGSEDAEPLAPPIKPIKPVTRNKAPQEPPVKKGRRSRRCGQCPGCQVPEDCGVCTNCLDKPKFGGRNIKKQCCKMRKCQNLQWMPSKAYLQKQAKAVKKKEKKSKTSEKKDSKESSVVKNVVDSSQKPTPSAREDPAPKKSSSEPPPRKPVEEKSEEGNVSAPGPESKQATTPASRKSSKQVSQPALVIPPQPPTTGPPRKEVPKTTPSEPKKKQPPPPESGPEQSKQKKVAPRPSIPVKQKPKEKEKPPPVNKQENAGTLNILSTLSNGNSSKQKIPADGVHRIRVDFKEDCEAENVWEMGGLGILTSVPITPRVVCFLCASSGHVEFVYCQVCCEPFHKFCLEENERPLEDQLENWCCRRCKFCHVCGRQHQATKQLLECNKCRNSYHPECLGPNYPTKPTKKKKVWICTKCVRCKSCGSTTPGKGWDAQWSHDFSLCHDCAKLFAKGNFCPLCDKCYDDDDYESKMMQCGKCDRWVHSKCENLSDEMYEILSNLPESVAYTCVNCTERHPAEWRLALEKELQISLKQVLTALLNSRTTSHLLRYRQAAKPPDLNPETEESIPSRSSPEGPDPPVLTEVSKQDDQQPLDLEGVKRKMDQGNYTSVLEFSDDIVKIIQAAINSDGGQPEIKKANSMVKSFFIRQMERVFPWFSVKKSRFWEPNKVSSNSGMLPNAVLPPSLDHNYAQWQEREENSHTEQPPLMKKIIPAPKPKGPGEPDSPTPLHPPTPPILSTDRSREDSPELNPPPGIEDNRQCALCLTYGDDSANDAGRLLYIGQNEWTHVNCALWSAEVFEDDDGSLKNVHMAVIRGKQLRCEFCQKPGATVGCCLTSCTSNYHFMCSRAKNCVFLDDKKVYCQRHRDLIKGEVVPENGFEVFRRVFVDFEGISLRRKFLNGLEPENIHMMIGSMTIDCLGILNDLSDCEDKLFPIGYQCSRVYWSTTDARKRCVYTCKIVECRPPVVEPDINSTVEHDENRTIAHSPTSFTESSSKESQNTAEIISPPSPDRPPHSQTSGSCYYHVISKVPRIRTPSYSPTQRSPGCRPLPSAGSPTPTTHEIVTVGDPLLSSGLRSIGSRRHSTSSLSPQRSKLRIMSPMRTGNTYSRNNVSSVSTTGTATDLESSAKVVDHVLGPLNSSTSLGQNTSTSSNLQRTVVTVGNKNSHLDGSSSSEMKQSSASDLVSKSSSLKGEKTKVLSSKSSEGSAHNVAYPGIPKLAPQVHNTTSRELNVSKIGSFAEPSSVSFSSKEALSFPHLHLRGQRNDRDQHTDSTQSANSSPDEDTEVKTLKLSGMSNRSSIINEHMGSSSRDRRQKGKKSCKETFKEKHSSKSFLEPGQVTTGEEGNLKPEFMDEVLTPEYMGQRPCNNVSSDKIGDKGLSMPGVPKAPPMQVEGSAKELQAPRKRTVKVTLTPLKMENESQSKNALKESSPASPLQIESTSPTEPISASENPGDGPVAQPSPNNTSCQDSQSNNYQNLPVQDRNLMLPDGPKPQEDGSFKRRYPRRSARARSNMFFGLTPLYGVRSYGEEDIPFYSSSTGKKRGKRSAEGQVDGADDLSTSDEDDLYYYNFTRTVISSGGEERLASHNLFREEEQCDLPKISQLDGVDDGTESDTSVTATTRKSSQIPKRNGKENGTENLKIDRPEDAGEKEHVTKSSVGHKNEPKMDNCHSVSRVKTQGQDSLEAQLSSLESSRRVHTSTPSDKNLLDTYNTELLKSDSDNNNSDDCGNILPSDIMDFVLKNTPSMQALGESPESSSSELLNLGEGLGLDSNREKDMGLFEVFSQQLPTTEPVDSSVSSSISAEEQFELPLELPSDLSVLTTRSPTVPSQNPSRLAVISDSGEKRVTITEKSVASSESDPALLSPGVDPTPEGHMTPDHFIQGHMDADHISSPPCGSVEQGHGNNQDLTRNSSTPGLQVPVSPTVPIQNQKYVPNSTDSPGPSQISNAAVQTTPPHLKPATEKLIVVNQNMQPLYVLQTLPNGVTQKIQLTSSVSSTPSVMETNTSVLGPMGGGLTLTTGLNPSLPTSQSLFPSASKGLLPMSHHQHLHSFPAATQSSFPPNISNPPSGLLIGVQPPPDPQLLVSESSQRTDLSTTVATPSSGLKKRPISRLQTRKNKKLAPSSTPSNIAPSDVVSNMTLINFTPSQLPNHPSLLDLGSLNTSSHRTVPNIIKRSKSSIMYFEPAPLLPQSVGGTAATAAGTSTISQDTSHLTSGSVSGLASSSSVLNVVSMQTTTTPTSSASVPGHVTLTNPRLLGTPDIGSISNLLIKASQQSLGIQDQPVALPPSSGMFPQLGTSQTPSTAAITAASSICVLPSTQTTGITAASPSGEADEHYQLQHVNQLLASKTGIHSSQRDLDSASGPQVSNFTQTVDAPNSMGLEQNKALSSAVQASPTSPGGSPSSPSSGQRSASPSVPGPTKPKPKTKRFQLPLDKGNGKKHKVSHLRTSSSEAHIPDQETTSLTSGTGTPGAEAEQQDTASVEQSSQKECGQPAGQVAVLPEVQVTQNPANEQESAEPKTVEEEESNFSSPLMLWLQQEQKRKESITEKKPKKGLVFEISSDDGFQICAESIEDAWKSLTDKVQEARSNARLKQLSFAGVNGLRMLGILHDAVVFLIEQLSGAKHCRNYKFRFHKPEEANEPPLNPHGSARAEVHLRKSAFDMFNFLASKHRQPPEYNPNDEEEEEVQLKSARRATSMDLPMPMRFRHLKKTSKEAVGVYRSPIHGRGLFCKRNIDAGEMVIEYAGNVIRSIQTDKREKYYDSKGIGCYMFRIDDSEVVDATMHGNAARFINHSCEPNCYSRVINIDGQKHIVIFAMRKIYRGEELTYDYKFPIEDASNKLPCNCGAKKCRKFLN

Row | SMILES | Potency
1 | c1cc2c3c(cccc3c1)NC1(CCC3(CC1)Nc1cccc4cccc(c14)N3)N2 | inconclusive: 10 µM [inhibitor, single point]
2 | N#C/C(=C\c1ccc([N+](=O)[O-])cc1)C(=O)Nc1ccccc1O | inconclusive: 89.1 µM [inhibitor, single point]
3 | COc1cc(N=C2C(=O)N3CCCc4cccc2c43)cc(OC)c1 | inactive
4 | O=c1c(C=Nc2ccc(Oc3ccccc3)cc2)c[nH]n1-c1cccc(Cl)n1 | inconclusive: 14.1 µM [fluorescent, side channel, partial curve]
5 | Oc1ccc(/C=N/Nc2cc(N3CCCC3)nc(N3CCCC3)n2)cc1O | inactive
6 | O=c1[nH]c(Nc2ccc(F)cc2)cc2ccccc12 | inactive
7 | COC(=O)c1c(C(=O)OC)c(-c2ccc(OC)cc2)n2c1CCC2 | inconclusive: 63.1 µM [fluorescent, side channel, single point]
8 | Cc1ccccc1NC(=S)NNC(=O)c1csc2c1CCC(C)C2 (centres undefined) | inconclusive: 56.2 µM [fluorescent, side channel, single point]
9 | CCOc1cc(/C=C2/C(=O)ON=C2C)ccc1OCc1ccccc1F | inconclusive: 7.08 µM [inhibitor, full curve, poor fit]
10 | O=C(NN=C1CCCC1)NC1CCCCC1 | inconclusive: 15.8 µM [fluorescent, side channel, single point]
11 | S=C(Nc1ccc(CN2CCCCC2)cc1)Nc1cccc(Cl)c1Cl | inconclusive: 70.8 µM [quencher, side channel, single point]
12 | O=C(CCCCn1c(=S)[nH]c2ccsc2c1=O)NCc1ccco1 | inactive
13 | O=C(O)C(c1ccccc1)N1C(=O)/C(=C\c2ccc(-c3ccc(Br)cc3)o2)SC1=S (centres undefined) | inconclusive: 28.2 µM [fluorescent, side channel, partial curve]
14 | CC(NC(=O)C[n+]1cccc(Br)c1)c1ccccc1 (centres undefined) | inconclusive: 63.1 µM [fluorescent, side channel, single point]
15 | COc1ccc(CNC(=O)C(C#N)c2nc3ccccc3nc2N2CCCC2)cc1 (centres undefined) | inconclusive: 35.5 µM [fluorescent, side channel, partial curve]
16 | CC(=O)Nc1ccc(NC(=O)c2cc(=O)c3cc(C)c(C)cc3o2)cc1 | inconclusive: 35.5 µM [fluorescent, side channel, partial curve]
17 | Cc1cnc(C(=O)OCC(=O)N=c2sccn2Cc2ccccc2Cl)cn1 | inconclusive: 8.91 µM [fluorescent, side channel, single point]
18 | C(=Nc1ccc(Nc2ccccc2)cc1)c1ccc2ccccc2c1 | inactive
19 | O=C(NC1CCN(C(=S)NCCc2ccccc2)CC1)C1CCCCC1 | inconclusive: 8.91 µM [fluorescent, side channel, full curve]
20 | COc1ccc(/C=N/NC(=O)c2cccnc2)cc1CN1CCN(c2ccc(F)cc2)CC1 | inactive

Row | SMILES | Potency
21 | O=C(Nc1ccc(CN2CCOCC2)cc1)c1ccc(-c2cc(Cl)ccc2Cl)o1 | inactive
22 | O=[N+]([O-])c1ccc(N2CCN(C(=S)Nc3ccc(F)cc3F)CC2)cc1 | inconclusive: 44.7 µM [fluorescent, side channel, single point]
23 | C=CCN1C(=O)[C@@H]2Cc3c([nH]c4ccccc34)C(c3cc(OC)c(OC)c(OC)c3)N2C1=S (some centres undefined) | inconclusive: 25.1 µM [fluorescent, side channel, partial curve]
24 | COc1cc(/C=C(/C#N)C(=O)NC(C)c2ccccc2)cc(OC)c1O (centres undefined) | inconclusive: 89.1 µM [fluorescent, side channel, single point]
25 | CCCCCn1cnc2c(=S)nc(N)[nH]c21 | inconclusive: 1.41 µM [inhibitor, full curve, poor fit]
26 | CCN1/C(=C/c2ccc3cccc(C)c3[n+]2CC)Sc2ccccc21 | inconclusive: 31.6 µM [fluorescent, partial curve]
27 | OCCCc1nc2n(n1)C(c1cccs1)C=C(c1ccc(Br)cc1)N2 (centres undefined) | inconclusive: 6.31 µM [fluorescent, side channel, full curve]
28 | CCOc1ccc(S(=O)(=O)N(C)c2ccc(OCC(=O)NC3=NCCS3)cc2)cc1 | inconclusive: 15.8 µM [quencher, side channel, single point]
29 | CC(=O)NC(c1ccc(Cl)cc1Cl)c1ccc2cccnc2c1O (centres undefined) | inconclusive: 39.8 µM [inhibitor, single point]
30 | CCNc1nc(Nc2ccc(C)c(Cl)c2)c2cnn(C)c2n1 | inconclusive: 7.94 µM [fluorescent, side channel, single point]
31 | Cc1ccccc1C(=O)c1c[nH]c(C(=O)NCc2cccs2)c1 | inconclusive: 11.2 µM [inhibitor, single point]
32 | CC(C)(C)OC(=O)n1cc(/C=N/NC(=O)c2ccco2)c2ccccc21 | inconclusive: 8.91 µM [quencher, side channel, single point]
33 | CC1(C)NC(=O)N(CC(=O)OCC(=O)Nc2cc(S(=O)(=O)N3CCCCCC3)ccc2Cl)C1=O | inconclusive: 12.6 µM [fluorescent, side channel, single point]
34 | CC1(C)C2CCC1(C)C(OC(=O)c1ccc(O)cc1)C2 (centres undefined) | inconclusive: 31.6 µM [inhibitor, single point]
35 | CCN1C(=O)c2cccc3c(S(=O)(=O)N(C(=O)c4ccncc4)c4ccc(OC)cc4)ccc1c23 | inactive
36 | Cc1cccc(-c2noc(CCC(=O)NC3CCCC3)n2)c1 | inactive
37 | COc1cc(/C=C(\C#N)c2nc3ccc(C)cc3[nH]2)cc([N+](=O)[O-])c1O | inconclusive: 31.6 µM [inhibitor, single point]
38 | CCN1CCN(C(=S)c2ccc([N+](=O)[O-])cc2)CC1 | inconclusive: 89.1 µM [inhibitor, single point]
39 | Cc1nn(-c2ccccn2)c2nc(-c3cccs3)cc(C(=O)NCc3ccco3)c12 | inactive
40 | CCOC(=O)C1=C(C)N=c2s/c(=C/c3ccc(OCC(=O)O)cc3)c(=O)n2C1c1ccc(OC)cc1OC (centres undefined) | inconclusive: 35.5 µM [fluorescent, side channel, partial curve]

4 entries from above in another layout:
Row,SMILES,Potency
21,O=C(Nc1ccc(CN2CCOCC2)cc1)c1ccc(-c2cc(Cl)ccc2Cl)o1,inactive
24,COc1cc(/C=C(/C#N)C(=O)NC(C)c2ccccc2)cc(OC)c1O (centres undefined),"inconclusive: 89.1 µM [fluorescent, side channel, single point]"
28,CCOc1ccc(S(=O)(=O)N(C)c2ccc(OCC(=O)NC3=NCCS3)cc2)cc1,"inconclusive: 15.8 µM [quencher, side channel, single point]"
33,CC1(C)NC(=O)N(CC(=O)OCC(=O)Nc2cc(S(=O)(=O)N3CCCCCC3)ccc2Cl)C1=O,"inconclusive: 12.6 µM [fluorescent, side channel, single point]"

Next part.

Row | SMILES | Potency
41 | Cc1c(NC(=O)NC2CCCCC2)cccc1[N+](=O)[O-] | inconclusive: 31.6 µM [inhibitor, single point]
42 | Cc1nnc2c(NCC(C)c3ccccc3)nc3ccccc3n12 (centres undefined) | inconclusive: 70.8 µM [fluorescent, side channel, single point]
43 | Nc1ccc2c(c1)C(=O)C(=O)c1ccccc1-2 | inconclusive: 44.7 µM [quencher, side channel, partial curve]
44 | OCCN1CCN(c2ncnc3c2sc2nc(N4CCOCC4)c4c(c23)CCC4)CC1 | inconclusive: 50.1 µM [quencher, side channel, single point]
45 | Cc1ccc2nc(-c3cccc(Br)c3)cc(C(=O)NC3CC3)c2c1 | inconclusive: 11.2 µM [fluorescent, side channel, single point]
46 | CN(CC(=O)NCc1ccccc1F)S(=O)(=O)c1ccc(Cl)cc1 | inconclusive: 7.08 µM [fluorescent, side channel, single point]
47 | C=CC(=O)NC(C)(C)CCN1CCOCC1 | inconclusive: 3.98 µM [quencher, side channel, partial curve]
48 | Cc1ccccc1Cn1c2ccccc2c2cnn(CC(=O)NCCCN3CCN(C)CC3)c(=O)c21 | inconclusive: 14.1 µM [quencher, side channel, full curve, poor fit]
49 | COC(=O)c1ccc(-c2ccc(C(c3c(C)[nH][nH]c3=O)c3c(C)[nH][nH]c3=O)o2)cc1 | inconclusive: 89.1 µM [inhibitor, single point]
50 | CCOC(=O)C1(Cc2ccccc2C)CCCN(C(=O)c2ccc3nccnc3c2)C1 (centres undefined) | inconclusive: 14.1 µM [fluorescent, side channel, single point]
51 | Cc1cc(C)c(C(=O)c2ccc(C(=O)N3CCCCC3)cc2)c(C)c1 | inconclusive: 12.6 µM [fluorescent, side channel, single point]
52 | Cc1ccc(C)c(NC(=O)CCC(=O)NNC(=O)c2cccs2)c1 | inconclusive: 100 µM [fluorescent, side channel, partial curve]
53 | CC(=O)NC1C(=O)N=C(SC(C)C(=O)Nc2cccc(Cl)c2)NC1=O (centres undefined) | inconclusive: 70.8 µM [inhibitor, single point]
54 | Nc1nonc1-n1nnc(C(=O)N/N=C/c2ccc(Cl)cc2Cl)c1CN1CCCC1 | inconclusive: 7.08 µM [fluorescent, side channel, full curve]
55 | N#C/C(=C/c1ccc(N2CCOCC2)o1)C(=O)NC1CCCCC1 | inconclusive: 35.5 µM [fluorescent, side channel, partial curve]
56 | N#CC(=C=[N-])C1=C(C#N)C(c2ccccc2F)C([n+]2ccccc2)C(O)(C2CC2)N1 (centres undefined) | inconclusive: 39.8 µM [inhibitor, single point]
57 | CCc1cc[n+](-c2nc([O-])sc2C=O)cc1 | inconclusive: 35.5 µM [inhibitor, partial curve]
58 | Cn1c(=O)c2c(ncn2CC2OCCO2)n(C)c1=O | inconclusive: 12.6 µM [inhibitor, single point]
59 | NS(=O)(=O)c1cc(C(=O)NC2CCSc3ccccc32)ccc1Cl (centres undefined) | inconclusive: 70.8 µM [inhibitor, single point]

Source: PubChem BioAssay AID2662 (National Center for Advancing Translational Sciences (NCATS), 2010)
